Measurements from PMC7557402, “Evaluation of Nucleoside Analogs as Antimicrobials Targeting Unique Enzymes in Borrelia burgdorferi” (Pathogens, 2020).

Test system: Borrelia MTANs (Bgp, MtnN, Pfs)
Assay: MTAN activity/kinetics, across the nucleosidases
Type: biochemical
Settings: Bgp and Pfs
Experimental: Enzyme specific activities were determined using previously reported optimal pH conditions (50 mM sodium phosphate, pH = 7, for Bgp, MtnN; 50 mM sodium phosphate-citrate, pH = 5, for Pfs) and a spectrophotometric activity assay that measures the decrease in UV absorbance at 275 nm that occurs when MTA is cleaved to 5-methylthioribose and adenine (ε275 = 1.6 mM^−1cm^−1). The extinction coefficients for cleavage of other nucleosides were experimentally validated and found to be the same for MSeA, FSBA, and IADO (ε275 = 1.6 mM^−1cm^−1). Due to the added UV absorbance imparted by the 5′ purine group found in PurTA, the enzyme reactions were followed spectrophotometrically at 260 nm using the experimentally determined extinction coefficient of ε260 = 5.6 mM^−1cm^−1. Enzyme specific activities for MTA were generally 1–2 U/mg (1 U = µmol MTA hydrolyzed/min). The enzyme specific activities for other nucleosides were determined and reported in U/mg and as the % max specific activity (relative to MTA at 100%).
Kinetic constants have been previously reported for MTA [18]. […]

Substance: 5′-deoxy-5′-methylselenoadenosine [MSeA]
- Km higher than reported for MTA: approximately 3 fold
